This note sets out measurements from PubChem BioAssay AID1487 (National Center for Advancing Translational Sciences (NCATS), 2009).

The structures appear in SMILES notation. Some of the results follow. The main result of the screen is listed elsewhere. These columns were measured beside it and carry no call. The list favours compounds with an active or inconclusive main result. The note in brackets gives the kind of curve behind each potency; many fits are weak.

The nature of the assay: qHTS Assay for Modulators of Lamin A Splicing. Particulars: HeLa LMNA splicing GFP/RFP minigene ratio, 48 h. The method in brief:
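Read-out is the ratio of GFP to DsRed2 object intensity, acquired by 488 nm laser-scanning cytometry on HeLa lamin A-EGFP minigene reporter cells. Compound incubation 48 hrs at 37 °C in Opti-MEM with 2% FBS; DMSO 0.5% final.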

The mark [1] stands for this setting: measured here: RFP viability control channel.
The mark [2] stands for this setting: measured here: GFP splicing reporter channel.

Regarding `Nc1nonc1-c1nc2ccccc2n1Cc1ccccc1`, under setting [1], the AC50 is 1 µM [falling, partial curve].

For `Cc1ccnc(-n2c(C)cc(C=O)c2C)c1`, the AC50 under setting [1] was 1.41 µM [falling, full curve, poor fit].

`COc1cccc(NC(=O)Cn2c(=O)n(-c3cc(OC)c(OC)c(OC)c3)c(=O)c3ccccc32)c1`: the half-maximal activity concentration (AC50) runs as follows: under setting [2], 2 µM [rising, partial curve]; under setting [1], 3.55 µM [rising, partial curve, poor fit].

Take `COc1ccccc1C1N(c2ccc(Cl)cc2)C(=O)C2CCCN21` (stereo unspecified): under setting [2], the half-maximal activity concentration (AC50) is 7.94 µM [falling, partial curve].

`Cc1ccc(C(=O)NC(=S)NCCCN2CCOCC2)cc1`: the concentration at half-maximal activity (AC50) by setting is: under setting [2], 15.8 µM [falling, partial curve, poor fit]; under setting [1], 10 µM [falling, partial curve].

In the case of `Cc1ccc(Nc2c3c(nc4nc(-c5cccs5)nn24)CCCC3)cc1F`, the concentration at half-maximal activity (AC50) under setting [1] is 35.5 µM [rising, single point].

`COc1ccc(N2C(=O)CSC23C(=O)N(Cc2cccc(C(F)(F)F)c2)c2ccccc23)cc1` (stereo unspecified): under setting [1], the half-maximal activity concentration (AC50) was 0.00355 µM [falling, full curve, poor fit].

For `CN1C(=O)/C(=C\c2ccc(-c3ccccc3)o2)SC1=S`, the concentration at half-maximal activity (AC50) by setting is: under setting [2], 2.82 µM [falling, partial curve]; under setting [1], 0.562 µM [falling, full curve, poor fit].

As to `CCCOC(=O)CCNc1n[nH]c(=O)[nH]c1=O`, the half-maximal activity concentration (AC50) under setting [2] was 0.02 µM [rising, full curve].

As to `Nc1nc(-c2ccccn2)nc(N)c1Cc1ccc(Cl)cc1Cl`, the half-maximal activity concentration (AC50) under setting [1] is 12.6 µM [rising, partial curve, poor fit].

For `COc1ccccc1-c1nc(C#N)c(N2CCN(Cc3ccccc3)CC2)o1`, the concentration at half-maximal activity (AC50) under setting [1] was 11.2 µM [rising, partial curve].

`CCOC(=O)Cn1nc(C)c(NC(=O)COc2ccccc2)c1C`: the AC50 is 0.02 µM [rising, full curve] under setting [2] and 0.0282 µM [rising, full curve, poor fit] under setting [1].

For `Cc1ccc(OCCN2CCN(C(=O)CCC(=O)Nc3nnc(C(C)C)s3)CC2)cc1`, the AC50 is, setting by setting: under setting [2], 10 µM [rising, partial curve]; under setting [1], 7.94 µM [rising, partial curve].

Turning to `Fc1ccc(COc2ccccc2C(=S)N2CCCC2)cc1`, the half-maximal activity concentration (AC50) under setting [2] is 12.6 µM [rising, single point].

As to `COC(=O)[C@H]1[C@@H](C)N(CCc2cc(OC)c(OC)c(OC)c2)C(=O)N[C@H]1c1ccccc1`, the AC50 under setting [2] was 0.000891 µM [rising, full curve, poor fit].

Turning to `Cc1ccc(C(=O)c2ccccc2C(=O)OCC(=O)NC(=O)NC(C)(C)C)cc1`, under setting [2], the concentration at half-maximal activity (AC50) was 35.5 µM [falling, partial curve].

Consider `CCN(CC)c1nc(Nc2ccccc2)nc(Oc2ccc(=O)n(C)n2)n1`, for which the AC50 is 31.6 µM [rising, single point] under setting [2] and 35.5 µM [rising, single point] under setting [1].

Regarding `CN(C)CCCN(C(=O)c1ccc2c(c1)CCCC2)c1nc2ccc(F)cc2s1`, under setting [1], the AC50 was 1 µM [rising, full curve, poor fit].

Turning to `Cc1cnc(C(=O)Nc2nnc(SCc3c(Cl)cccc3Cl)s2)cn1`, the half-maximal activity concentration (AC50) under setting [2] is 12.6 µM [rising, single point] and the AC50 under setting [1] is 12.6 µM [rising, partial curve].

On to `CC/C(=C\C1CCCCC1)C(NP(=O)(c1ccccc1)c1ccccc1)c1ccccc1` (stereo unspecified), for which the AC50 is 35.5 µM [falling, single point] under setting [2] and 25.1 µM [falling, single point] under setting [1].

For `O=C(NCC(c1cccs1)N1CCOCC1)c1cc([N+](=O)[O-])ccc1Cl` (stereo unspecified), the concentration at half-maximal activity (AC50) under setting [2] was 5.62 µM [falling, single point].

For `Cc1cc(C)n(CNc2nc(C(F)(F)F)cs2)n1`, under setting [1], the half-maximal activity concentration (AC50) is 11.2 µM [rising, single point].

Consider `Cc1ccc(NC(=S)N(CCCN2CCN(C)CC2)Cc2cccs2)cc1C`, for which, under setting [1], the AC50 is 0.251 µM [falling, full curve].

In the case of `COc1ccc(C(=O)/C=C/c2ccc(N3CCCCC3)c([N+](=O)[O-])c2)cc1`, the AC50 was 35.5 µM [falling, single point] under setting [2] and 35.5 µM [falling, single point] under setting [1].

`CCOc1ccc(CNC(=O)c2ccc(Sc3ccc(C)cc3)c(NC(C)=O)c2)cc1OC`: the AC50 under setting [1] was 12.6 µM [rising, partial curve].

For `CCOc1cc(C(=O)N2CCc3cc(OC)c(OC)cc3C2)ccc1OC(F)F`, the AC50 is, setting by setting: under setting [2], 4.47 µM [rising, full curve, poor fit]; under setting [1], 2.82 µM [rising, full curve].

Consider `CN(C)c1ccc(N=Nc2ccccc2C(=O)OCC(=O)N(C)c2ccccc2)cc1`, for which the AC50 by setting is: under setting [2], 28.2 µM [rising, single point]; under setting [1], 22.4 µM [rising, partial curve, poor fit].

On to `Cc1ccccc1NC(=O)c1ccccc1O`, for which the AC50 reads like this: under setting [2], 31.6 µM [rising, single point]; under setting [1], 31.6 µM [rising, single point].

For `Cc1ccc(C2CCN(C(=O)c3cnn(-c4ccccc4Cl)c3C3CCN(C(=O)OC(C)(C)C)CC3)C2)cc1` (stereo unspecified), the concentration at half-maximal activity (AC50) is, setting by setting: under setting [2], 31.6 µM [falling, partial curve]; under setting [1], 35.5 µM [falling, partial curve].

On to `CCOC(=O)C1CCN(c2nc(C)cc(C)c2C#N)CC1`, for which the AC50 under setting [1] was 0.0891 µM [rising, full curve, poor fit].

As for `COc1cc(C2CC(=O)NC3=C2C(=O)CC(C)(C)C3)ccc1O` (stereo unspecified), the half-maximal activity concentration (AC50) under setting [2] was 6.31 µM [rising, single point].

In the case of `COc1ccc(NC(=O)C(F)(OC)C(F)(F)F)c(OC)c1` (stereo unspecified), the AC50 under setting [2] was 4.47 µM [falling, single point].

Turning to `O=C(Nc1ccn(-c2ccccc2)n1)c1ccc(S(=O)(=O)N2CCCCCC2)cc1`, the concentration at half-maximal activity (AC50) under setting [1] is 10 µM [rising, partial curve].

Turning to `O=C(CN1C(=O)c2cccc3cccc1c23)N1CCN(Cc2ccc3c(c2)OCO3)CC1`, the half-maximal activity concentration (AC50) under setting [1] is 28.2 µM [rising, single point].

Take `CC1CCc2nc(NC(=O)CSc3nc4ccccc4o3)sc2C1` (stereo unspecified): the concentration at half-maximal activity (AC50) under setting [2] is 6.31 µM [rising, full curve, poor fit] and the half-maximal activity concentration (AC50) under setting [1] is 3.16 µM [rising, full curve].

In the case of `COc1cc(NC(=O)COc2ccc(-n3ccnc3)cc2)cc(OC)c1`, the AC50 under setting [2] is 14.1 µM [falling, partial curve, poor fit].

Regarding `COc1ccc(-n2c(C)cc(/C=C/c3nc(O)c([N+](=O)[O-])c(=O)[nH]3)c2C)cc1`, the half-maximal activity concentration (AC50) under setting [1] was 0.282 µM [falling, full curve, poor fit].

For `C/C(=N/NC(=O)Nc1ccccc1)c1ccc(C)cc1`, the half-maximal activity concentration (AC50) under setting [2] is 35.5 µM [rising, single point].

As to `COc1cc2c(cc1OC)C(/C(C#N)=N\O)=NC(C)(C)C2`, under setting [1], the AC50 is 5.01 µM [rising, full curve, poor fit].

`COCCCNc1ncnc2c1c(-c1ccccc1)cn2-c1ccc(C)c(Cl)c1`: the AC50 under setting [2] was 10 µM [falling, partial curve] and the concentration at half-maximal activity (AC50) under setting [1] is 15.8 µM [falling, partial curve, poor fit].

On to `C=CCN(c1ccc(OC)cc1)S(=O)(=O)c1ccc(Cl)c(C(=O)OCC(=O)NC2CC2)c1`, for which the concentration at half-maximal activity (AC50) was 2.51 µM [falling, partial curve, poor fit] under setting [2] and 0.00316 µM [falling, full curve, poor fit] under setting [1].

As for `CCOC(=O)CCC(=O)Nc1ccc(S(=O)(=O)N2CCCCC2)cc1`, the AC50 under setting [1] is 0.01 µM [falling, full curve, poor fit].

Consider `CCn1c(=S)[nH]c2cc(S(=O)(=O)N3CCCCC3)ccc21`, for which the half-maximal activity concentration (AC50) under setting [1] is 8.91 µM [rising, partial curve].

Take `COc1c(Cl)cc(Cl)cc1CNCCO`: the AC50 under setting [2] was 20 µM [rising, partial curve, poor fit].

Take `Cc1cc(C)c2[nH]c(=O)c(CN(Cc3cccs3)C(=S)NCc3ccco3)cc2c1`: the concentration at half-maximal activity (AC50) under setting [2] was 35.5 µM [rising, single point] and the half-maximal activity concentration (AC50) under setting [1] was 25.1 µM [rising, single point].

For `N#C/C(=C/c1ccccc1)C(=O)NCc1ccccc1`, the concentration at half-maximal activity (AC50) is, setting by setting: under setting [2], 11.2 µM [falling, partial curve]; under setting [1], 11.2 µM [falling, partial curve].

As to `CCN(CCCNc1ncnc2nc[nH]c12)c1cccc(C)c1`, the AC50 under setting [1] was 15.8 µM [rising, partial curve].

Take `CC1Cc2ccccc2N1C(=O)CSc1nc(-c2ccccc2)cs1` (stereo unspecified): under setting [1], the AC50 was 31.6 µM [rising, single point].

With `CC(C)(Oc1ccc(Cl)cc1)C(=O)NCCCn1ccnc1`, the AC50 under setting [1] was 11.2 µM [rising, single point].

For `Cc1cccc(OCc2ccc(-c3nc(C#N)c(N4CCC(C(N)=O)CC4)o3)o2)c1`, the AC50 reads like this: under setting [2], 35.5 µM [falling, single point]; under setting [1], 35.5 µM [falling, single point].

With `CCOC(=O)c1cccc(NC(=O)Cn2c(=O)nc(-c3ccccc3)c3ccccc32)c1`, the half-maximal activity concentration (AC50) is 12.6 µM [falling, partial curve, poor fit] under setting [2] and 25.1 µM [falling, partial curve] under setting [1].

`O=C(Nc1cc(C(F)(F)F)ccc1Cl)c1cc(S(=O)(=O)NCc2ccccc2)ccc1F`: the half-maximal activity concentration (AC50) under setting [2] is 0.0708 µM [falling, full curve, poor fit].

Turning to `Fc1ccc(NC(=S)NCc2cccs2)cc1`, the concentration at half-maximal activity (AC50) under setting [1] is 35.5 µM [rising, single point].

For `CC(C)CCNC(=O)NC(=O)COc1c(F)c(F)cc(F)c1F`, the AC50 under setting [2] was 12.6 µM [rising, partial curve, poor fit].

In the case of `Cc1c(Cl)cccc1-c1ccc(C(=O)N2CCN(c3ccc([N+](=O)[O-])cc3)CC2)o1`, the AC50 under setting [2] was 3.55 µM [rising, full curve, poor fit] and the concentration at half-maximal activity (AC50) under setting [1] is 7.08 µM [rising, full curve].

Broadly, the AC50 is the concentration giving half of the maximal activity seen.
